No constants are given. Whether binding was seen depends on the method and setting. For part of these data: Binding can be weak; no strength is given.
How the values were obtained:
[1] = target: T1, CyaA'-HPF(1–106) (S. aureus) (UniProt Q2FIN9); assay: two-hybrid; bacterial two-hybrid (BACTH): T25 and T18 fragments of B. pertussis Cya, coexpressed in E. coli Δcya; β-galactosidase activity and LB-X-Gal-IPTG agar after 24–30 h at 30 °C
T1 sequence: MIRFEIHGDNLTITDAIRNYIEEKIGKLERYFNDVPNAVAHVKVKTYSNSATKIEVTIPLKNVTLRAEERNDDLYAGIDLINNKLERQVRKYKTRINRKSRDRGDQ

[2] = target: T2, T18-HPF (S. aureus) (UniProt Q2FIN9); assay: as above
T2 sequence: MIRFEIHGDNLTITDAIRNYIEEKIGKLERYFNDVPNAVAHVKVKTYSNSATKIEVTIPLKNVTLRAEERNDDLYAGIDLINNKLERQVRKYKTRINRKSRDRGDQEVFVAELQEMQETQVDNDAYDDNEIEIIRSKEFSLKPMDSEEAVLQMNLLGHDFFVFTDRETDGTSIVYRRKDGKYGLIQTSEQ

Substance	binding [1]	binding [2]
T25-YwlG (S. aureus)	no binding	binds
YwlG(C69S) in the BACTH system (S. aureus)		binds

— publication PMC9522360, “Bidirectional sequestration between a bacterial hibernation factor and a glutamate metabolizing protein” (Proceedings of the National Academy of Sciences of the …, 2022)
